For experiment [1], the target named is T1, Drosophila melanogaster odorant receptor 67d (DmelOR67d) (D. melanogaster) (UniProt Q9VT92).
T1 sequence: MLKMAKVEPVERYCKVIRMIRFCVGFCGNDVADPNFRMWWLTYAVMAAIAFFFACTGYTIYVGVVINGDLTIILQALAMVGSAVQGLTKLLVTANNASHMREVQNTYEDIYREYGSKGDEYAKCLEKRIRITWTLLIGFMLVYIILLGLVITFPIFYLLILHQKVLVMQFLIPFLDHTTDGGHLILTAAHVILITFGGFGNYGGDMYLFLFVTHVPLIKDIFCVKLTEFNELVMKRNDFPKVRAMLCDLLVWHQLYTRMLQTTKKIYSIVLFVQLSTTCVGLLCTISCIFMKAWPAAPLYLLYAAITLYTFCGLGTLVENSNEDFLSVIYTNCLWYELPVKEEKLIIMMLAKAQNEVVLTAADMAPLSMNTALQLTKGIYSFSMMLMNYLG
The experiment can be described thus: two-hybrid.

Chains of the proteins cited; added tags and fusions are not shown.
UniProt Q9VDD3: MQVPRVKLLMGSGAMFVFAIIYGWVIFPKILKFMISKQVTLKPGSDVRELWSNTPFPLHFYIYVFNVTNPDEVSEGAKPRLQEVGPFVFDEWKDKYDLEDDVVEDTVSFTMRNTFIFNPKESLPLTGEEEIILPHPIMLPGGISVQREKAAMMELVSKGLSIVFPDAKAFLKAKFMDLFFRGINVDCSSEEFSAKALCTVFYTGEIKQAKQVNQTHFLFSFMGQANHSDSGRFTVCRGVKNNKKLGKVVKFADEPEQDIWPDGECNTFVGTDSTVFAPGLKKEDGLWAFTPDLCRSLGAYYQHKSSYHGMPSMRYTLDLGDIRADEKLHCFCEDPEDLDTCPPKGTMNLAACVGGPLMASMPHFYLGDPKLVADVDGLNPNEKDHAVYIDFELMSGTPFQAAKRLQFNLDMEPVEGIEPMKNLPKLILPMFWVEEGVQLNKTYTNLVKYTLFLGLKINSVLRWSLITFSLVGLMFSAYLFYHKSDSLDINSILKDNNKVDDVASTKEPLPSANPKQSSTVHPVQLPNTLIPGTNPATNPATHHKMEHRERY

Experiment [2] deals with T2, Drosophila melanogaster odorant receptor 22a (DmelOR22a) (D. melanogaster) (UniProt P81909).
T2 sequence: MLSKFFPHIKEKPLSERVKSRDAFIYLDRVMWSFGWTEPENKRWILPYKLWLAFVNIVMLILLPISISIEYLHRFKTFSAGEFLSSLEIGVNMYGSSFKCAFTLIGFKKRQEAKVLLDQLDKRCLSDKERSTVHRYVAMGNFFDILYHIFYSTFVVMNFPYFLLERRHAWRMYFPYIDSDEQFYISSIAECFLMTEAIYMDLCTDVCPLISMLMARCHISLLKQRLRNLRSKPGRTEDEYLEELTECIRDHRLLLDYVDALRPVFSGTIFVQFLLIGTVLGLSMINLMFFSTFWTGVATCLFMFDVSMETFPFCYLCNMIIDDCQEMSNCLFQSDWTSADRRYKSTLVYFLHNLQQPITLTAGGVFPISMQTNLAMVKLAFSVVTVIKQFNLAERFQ
The experiment can be described thus: two-hybrid.

Results are given in words; binding and its absence hold for the method and conditions named. Some entries that bind do so weakly or less than the wild type.

Take “Drosophila melanogaster sensory neuron membrane protein 1 (DmelSNMP1) (from UniProt Q9VDD3 1-551)”: the binding result in experiment [1] and in experiment [2] was “binds weakly” throughout.

These data come from paper doi:10.1101/262154.
